Some of the results follow. Residues, ends and D or L forms follow the SMILES beside them. *: point of attachment. Cbz = O=C(OCc1ccccc1)*
Assays:
Experiment in all cases: log2 fold change, soluble protein after heating vs DMSO (PISA); higher = thermal stabilisation; K562 cells, 10 uM, 30 min; active = over 0.2 and 3.5 SD of the protein, either way, in both replicates (recomputed)
[1] = compound: C#Cc1cccc(Nc2ncnc3cc(OCCOC)c(OCCOC)cc23)c1 [erlotinib]
Summary of the method: (§1)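 Aliquots of K562 cells (2×10^6 cells/mL) treated with 10 μM compound for 30 min were heated for 3 min over 48°C-58°C. After pooling and extraction in PBS with 0.5% NP-40 at 4°C, soluble protein from a 21,000xg, 90 min spin was quantified by TMTpro 16plex LC-MS/MS with channel sums equalised. Thermal stability is expressed against control samples, from duplicates, as a log2 fold change.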

The chains behind the UniProt entries cited, without tags or fusion partners. Where a name states a change or a piece, a line headed by the entry shows the natural chain unless it says otherwise.
UniProt P0DPB5: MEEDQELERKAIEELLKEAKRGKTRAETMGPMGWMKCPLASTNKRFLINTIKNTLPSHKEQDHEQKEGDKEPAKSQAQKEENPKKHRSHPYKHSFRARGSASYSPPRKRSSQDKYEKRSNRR
UniProt Q8NAT1: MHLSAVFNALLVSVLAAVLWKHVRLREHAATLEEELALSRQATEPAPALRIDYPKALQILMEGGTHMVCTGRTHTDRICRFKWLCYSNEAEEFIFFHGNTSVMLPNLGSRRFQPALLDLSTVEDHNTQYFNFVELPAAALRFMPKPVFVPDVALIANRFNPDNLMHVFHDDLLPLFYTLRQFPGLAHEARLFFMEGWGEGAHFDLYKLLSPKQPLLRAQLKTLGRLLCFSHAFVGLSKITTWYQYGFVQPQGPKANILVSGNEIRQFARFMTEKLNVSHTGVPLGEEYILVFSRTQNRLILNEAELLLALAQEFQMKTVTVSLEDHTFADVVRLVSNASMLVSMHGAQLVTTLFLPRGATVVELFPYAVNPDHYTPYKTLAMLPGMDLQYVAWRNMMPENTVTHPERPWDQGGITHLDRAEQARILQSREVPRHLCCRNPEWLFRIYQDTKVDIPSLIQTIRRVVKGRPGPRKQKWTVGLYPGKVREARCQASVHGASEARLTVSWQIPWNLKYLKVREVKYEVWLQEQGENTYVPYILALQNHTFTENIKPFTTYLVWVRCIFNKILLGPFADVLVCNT
UniProt Q04941: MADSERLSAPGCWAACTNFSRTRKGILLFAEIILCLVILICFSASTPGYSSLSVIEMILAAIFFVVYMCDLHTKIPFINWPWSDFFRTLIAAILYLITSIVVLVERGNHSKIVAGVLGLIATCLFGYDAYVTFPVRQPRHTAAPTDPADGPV
UniProt Q9NP80: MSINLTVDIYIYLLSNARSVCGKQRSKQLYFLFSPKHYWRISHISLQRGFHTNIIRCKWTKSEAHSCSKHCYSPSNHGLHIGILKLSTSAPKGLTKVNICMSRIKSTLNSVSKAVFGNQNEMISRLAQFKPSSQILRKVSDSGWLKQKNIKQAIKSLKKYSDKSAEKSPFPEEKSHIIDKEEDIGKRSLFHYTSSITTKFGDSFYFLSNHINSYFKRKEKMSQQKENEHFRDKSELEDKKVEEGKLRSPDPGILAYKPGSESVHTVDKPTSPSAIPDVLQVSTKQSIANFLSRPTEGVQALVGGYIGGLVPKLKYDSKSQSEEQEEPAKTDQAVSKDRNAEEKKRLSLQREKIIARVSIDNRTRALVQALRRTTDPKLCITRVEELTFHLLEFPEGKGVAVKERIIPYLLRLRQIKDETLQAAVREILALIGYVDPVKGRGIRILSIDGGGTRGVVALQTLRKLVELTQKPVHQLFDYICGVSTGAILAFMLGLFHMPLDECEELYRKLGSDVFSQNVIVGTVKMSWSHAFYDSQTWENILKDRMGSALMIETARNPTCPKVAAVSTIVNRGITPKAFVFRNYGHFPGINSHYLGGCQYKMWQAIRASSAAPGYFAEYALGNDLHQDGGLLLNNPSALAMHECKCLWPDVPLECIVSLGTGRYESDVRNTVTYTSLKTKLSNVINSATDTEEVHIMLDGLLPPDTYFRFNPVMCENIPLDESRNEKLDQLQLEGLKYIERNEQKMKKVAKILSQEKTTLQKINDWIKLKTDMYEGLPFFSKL
UniProt Q9Y6A1: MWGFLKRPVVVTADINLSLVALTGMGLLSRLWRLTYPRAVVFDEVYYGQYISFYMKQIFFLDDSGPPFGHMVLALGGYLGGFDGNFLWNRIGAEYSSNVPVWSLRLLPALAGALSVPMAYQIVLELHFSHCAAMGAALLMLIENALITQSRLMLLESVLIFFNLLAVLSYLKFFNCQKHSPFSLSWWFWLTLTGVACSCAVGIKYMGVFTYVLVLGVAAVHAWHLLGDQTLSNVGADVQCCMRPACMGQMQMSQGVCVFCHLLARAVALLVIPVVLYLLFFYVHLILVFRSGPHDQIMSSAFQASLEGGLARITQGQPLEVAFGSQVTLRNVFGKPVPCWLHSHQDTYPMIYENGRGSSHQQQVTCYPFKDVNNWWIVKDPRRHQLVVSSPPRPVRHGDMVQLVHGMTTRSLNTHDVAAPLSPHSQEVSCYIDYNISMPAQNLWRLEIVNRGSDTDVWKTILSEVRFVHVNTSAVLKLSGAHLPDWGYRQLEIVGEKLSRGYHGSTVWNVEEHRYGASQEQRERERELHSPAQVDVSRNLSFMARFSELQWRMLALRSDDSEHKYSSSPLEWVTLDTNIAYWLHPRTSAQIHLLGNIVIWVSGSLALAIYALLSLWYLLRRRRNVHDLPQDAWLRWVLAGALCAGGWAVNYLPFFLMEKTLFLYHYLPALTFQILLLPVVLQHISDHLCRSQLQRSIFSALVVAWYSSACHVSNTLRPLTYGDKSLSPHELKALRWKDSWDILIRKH
UniProt P45877: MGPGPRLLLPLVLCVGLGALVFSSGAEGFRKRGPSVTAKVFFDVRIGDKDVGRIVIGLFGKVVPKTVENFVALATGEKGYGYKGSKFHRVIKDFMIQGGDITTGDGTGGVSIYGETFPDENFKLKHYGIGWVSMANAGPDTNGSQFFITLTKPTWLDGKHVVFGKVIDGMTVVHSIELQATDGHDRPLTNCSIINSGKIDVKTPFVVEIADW
UniProt Q9NUX5: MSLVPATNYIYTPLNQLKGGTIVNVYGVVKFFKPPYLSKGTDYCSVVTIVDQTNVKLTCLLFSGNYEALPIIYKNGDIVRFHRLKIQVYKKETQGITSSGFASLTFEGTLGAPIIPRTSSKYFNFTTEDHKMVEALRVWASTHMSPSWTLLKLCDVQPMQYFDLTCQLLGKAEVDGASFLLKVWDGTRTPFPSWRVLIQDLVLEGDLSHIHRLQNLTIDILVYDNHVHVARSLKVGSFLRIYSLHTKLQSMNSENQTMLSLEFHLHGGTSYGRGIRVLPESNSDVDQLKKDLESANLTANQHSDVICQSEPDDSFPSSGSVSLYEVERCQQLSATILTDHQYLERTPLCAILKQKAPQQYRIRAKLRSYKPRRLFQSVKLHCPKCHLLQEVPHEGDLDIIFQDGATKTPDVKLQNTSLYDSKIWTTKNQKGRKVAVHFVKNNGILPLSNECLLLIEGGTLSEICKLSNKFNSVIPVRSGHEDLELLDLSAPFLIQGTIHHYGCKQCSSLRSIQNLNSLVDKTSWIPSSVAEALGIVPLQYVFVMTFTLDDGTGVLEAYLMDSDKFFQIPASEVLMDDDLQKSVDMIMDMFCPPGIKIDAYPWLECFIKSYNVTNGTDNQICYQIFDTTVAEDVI
UniProt Q15126: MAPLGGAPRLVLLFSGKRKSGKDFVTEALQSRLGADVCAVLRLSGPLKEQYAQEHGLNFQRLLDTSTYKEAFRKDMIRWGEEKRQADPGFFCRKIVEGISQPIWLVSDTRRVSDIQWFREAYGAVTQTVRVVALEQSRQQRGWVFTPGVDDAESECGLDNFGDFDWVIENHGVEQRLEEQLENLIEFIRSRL
UniProt Q7Z3K3: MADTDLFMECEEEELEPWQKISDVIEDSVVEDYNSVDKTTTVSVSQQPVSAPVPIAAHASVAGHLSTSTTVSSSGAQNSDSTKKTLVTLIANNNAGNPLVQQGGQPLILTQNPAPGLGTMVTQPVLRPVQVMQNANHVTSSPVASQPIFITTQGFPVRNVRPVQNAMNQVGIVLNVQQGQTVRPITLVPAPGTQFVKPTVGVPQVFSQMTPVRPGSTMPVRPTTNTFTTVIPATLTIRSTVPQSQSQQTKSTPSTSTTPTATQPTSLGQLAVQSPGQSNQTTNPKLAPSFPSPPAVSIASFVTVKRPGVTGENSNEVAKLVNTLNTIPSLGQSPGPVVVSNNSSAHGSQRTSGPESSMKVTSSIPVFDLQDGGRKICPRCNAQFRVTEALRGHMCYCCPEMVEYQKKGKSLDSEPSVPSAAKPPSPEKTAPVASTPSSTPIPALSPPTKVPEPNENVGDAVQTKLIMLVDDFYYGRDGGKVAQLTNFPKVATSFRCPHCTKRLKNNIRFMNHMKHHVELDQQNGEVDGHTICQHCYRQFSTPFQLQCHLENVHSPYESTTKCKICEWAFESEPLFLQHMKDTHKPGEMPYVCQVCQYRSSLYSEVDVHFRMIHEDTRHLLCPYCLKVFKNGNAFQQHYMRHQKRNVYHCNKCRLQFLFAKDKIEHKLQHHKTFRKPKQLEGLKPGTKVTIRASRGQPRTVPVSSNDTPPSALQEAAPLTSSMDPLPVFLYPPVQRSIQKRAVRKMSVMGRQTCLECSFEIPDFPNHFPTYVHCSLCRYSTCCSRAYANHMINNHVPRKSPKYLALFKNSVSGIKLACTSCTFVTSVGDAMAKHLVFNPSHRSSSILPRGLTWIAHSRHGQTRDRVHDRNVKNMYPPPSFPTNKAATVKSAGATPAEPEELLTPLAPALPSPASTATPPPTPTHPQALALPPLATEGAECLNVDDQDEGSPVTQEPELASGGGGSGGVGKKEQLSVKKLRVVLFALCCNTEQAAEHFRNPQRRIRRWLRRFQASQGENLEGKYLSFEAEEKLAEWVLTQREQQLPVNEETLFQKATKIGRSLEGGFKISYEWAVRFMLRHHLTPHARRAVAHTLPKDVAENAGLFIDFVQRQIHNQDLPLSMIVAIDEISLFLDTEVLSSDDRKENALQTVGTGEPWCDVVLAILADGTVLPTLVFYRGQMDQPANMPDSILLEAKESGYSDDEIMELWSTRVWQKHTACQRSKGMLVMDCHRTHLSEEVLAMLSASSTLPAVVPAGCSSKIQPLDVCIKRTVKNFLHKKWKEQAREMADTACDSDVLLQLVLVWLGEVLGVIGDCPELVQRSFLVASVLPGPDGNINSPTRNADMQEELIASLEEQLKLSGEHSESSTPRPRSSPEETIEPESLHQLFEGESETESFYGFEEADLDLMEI
UniProt Q9H307: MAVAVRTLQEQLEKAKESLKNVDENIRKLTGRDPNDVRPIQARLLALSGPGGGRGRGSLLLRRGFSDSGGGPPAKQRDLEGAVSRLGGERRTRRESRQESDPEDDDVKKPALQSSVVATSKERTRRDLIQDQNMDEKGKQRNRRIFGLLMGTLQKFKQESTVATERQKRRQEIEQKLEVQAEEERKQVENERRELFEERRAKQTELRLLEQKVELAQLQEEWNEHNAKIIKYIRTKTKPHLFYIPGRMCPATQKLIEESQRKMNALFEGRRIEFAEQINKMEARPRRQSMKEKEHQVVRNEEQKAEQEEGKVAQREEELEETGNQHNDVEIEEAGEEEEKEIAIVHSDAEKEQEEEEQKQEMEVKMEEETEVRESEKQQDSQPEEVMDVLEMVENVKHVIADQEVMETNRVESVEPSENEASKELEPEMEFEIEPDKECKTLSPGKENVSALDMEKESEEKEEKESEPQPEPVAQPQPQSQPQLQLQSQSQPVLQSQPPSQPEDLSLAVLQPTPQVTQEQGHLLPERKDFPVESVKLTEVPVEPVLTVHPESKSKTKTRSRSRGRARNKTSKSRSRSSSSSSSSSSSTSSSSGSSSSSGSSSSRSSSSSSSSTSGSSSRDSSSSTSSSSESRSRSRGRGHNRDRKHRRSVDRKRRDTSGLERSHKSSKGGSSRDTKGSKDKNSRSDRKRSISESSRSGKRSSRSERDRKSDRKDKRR
UniProt Q9HBL7: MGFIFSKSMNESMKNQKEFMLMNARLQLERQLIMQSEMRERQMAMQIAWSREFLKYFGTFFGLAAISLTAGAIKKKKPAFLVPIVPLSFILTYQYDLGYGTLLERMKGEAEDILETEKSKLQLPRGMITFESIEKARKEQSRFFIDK
UniProt P11086: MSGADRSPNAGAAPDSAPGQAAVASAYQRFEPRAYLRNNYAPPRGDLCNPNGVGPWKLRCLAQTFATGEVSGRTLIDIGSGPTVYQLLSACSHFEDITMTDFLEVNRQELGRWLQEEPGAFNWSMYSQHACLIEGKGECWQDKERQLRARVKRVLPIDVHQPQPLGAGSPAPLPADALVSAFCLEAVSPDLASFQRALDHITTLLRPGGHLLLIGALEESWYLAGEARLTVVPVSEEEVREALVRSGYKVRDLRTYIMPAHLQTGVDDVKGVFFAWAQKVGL
UniProt Q9NRY6: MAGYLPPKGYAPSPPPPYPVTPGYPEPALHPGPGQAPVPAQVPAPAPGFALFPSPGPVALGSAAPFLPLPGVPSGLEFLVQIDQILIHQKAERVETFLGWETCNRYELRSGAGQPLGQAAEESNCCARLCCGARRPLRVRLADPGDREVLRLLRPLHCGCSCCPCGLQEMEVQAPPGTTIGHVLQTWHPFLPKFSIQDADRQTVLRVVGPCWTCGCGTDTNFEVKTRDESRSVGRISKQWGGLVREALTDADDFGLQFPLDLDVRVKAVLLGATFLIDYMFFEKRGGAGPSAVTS
UniProt Q9NR33: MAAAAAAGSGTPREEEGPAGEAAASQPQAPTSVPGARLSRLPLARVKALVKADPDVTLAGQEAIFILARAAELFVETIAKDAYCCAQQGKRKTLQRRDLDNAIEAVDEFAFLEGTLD
UniProt Q6EEV4: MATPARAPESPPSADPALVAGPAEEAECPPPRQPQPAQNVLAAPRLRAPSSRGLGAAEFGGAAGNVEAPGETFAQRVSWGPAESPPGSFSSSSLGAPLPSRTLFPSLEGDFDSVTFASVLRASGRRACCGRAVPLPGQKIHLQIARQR

[2] = compound: C/C(=N\NC(=O)C1=CC(=CC=C1)S(=O)(=O)N2CCOCC2)/C3=C(C=CC(=C3)Cl)O
Summary of the method: as §1

[3] = compound: C1=CC(=C(C=C1Cl)C2=NC3=NC=CN=C3C(=N2)NC4=CC=NC=C4)F
Summary of the method: as §1

[4] = compound: C1=CC(=CC=C1C2=NC3=C(N2)C=C(C=C3)C(=O)N)OC4=CC=C(C=C4)Cl
Summary of the method: as §1

[5] = compound: C1=CC2=C(C=CC(=C2)/C=C\3/C(=O)NC(=NCC4=CC=CS4)S3)N=C1
Summary of the method: as §1

[6] = compound: C1=CC2=NC=CN=C2C=C1/C=C/3\C(=O)NC(=O)S3
Summary of the method: as §1

[7] = compound: C1=CC=C(C=C1)C2=NC(=C(N2)C3=CC=NC=C3)C4=CC(=C(C=C4)Cl)O
Summary of the method: as §1

[8] = compound: C1=CC=C2C(=C1)C3=NNC4=CC=CC(=C43)C2=O
Summary of the method: as §1

[9] = compound: C1CCN(C1)C(=O)NC2=CC=CC(=C2)NC3=NC=C(C(=N3)NCCC4=CN=CN4)Br
Summary of the method: as §1

[10] = compound: C1CN(CCC1(CC2=CC=C(C=C2)Cl)N)C3=NC=NC4=C3C=CN4
Summary of the method: as §1

[11] = compound: C1COCCN1CCN2C3=CC=CC=C3N=C2NC(=O)C4=CC(=CC=C4)[N+](=O)[O-] [IRAK-1-4 Inhibitor I]
Summary of the method: as §1

[12] = compound: C=CC(=O)N1CCC[C@@H](n2nc(-c3ccc(Oc4ccccc4)cc3)c3c(N)ncnc32)C1 [ibrutinib]
Summary of the method: as §1

[13] = compound: CC(=O)c1cnc2ccc(-c3cc(Cl)c(O)c(Cl)c3)nc2c1N[C@H]1CC[C@H](CN(C)C)CC1
Summary of the method: as §1

[14] = compound: CC(C)(C)Cn1c(N)nc2ccc(-c3[nH]c(C(C)(C)C)nc3-c3ccc(F)cc3)nc21 [ralimetinib]
Summary of the method: as §1

[15] = compound: CC(C)(O)CC(=O)NCCn1ccc2ncnc(Nc3ccc(Oc4cccc(C(F)(F)F)c4)c(Cl)c3)c21
Summary of the method: as §1

[16] = compound: CC(C)C1=C2N=C(C=C(N2N=C1)NCC3=CC=CC=C3)NCCCCCCN
Summary of the method: as §1

[17] = compound: CC(C)C[C@@H](C=O)NC(=O)[C@H](CC(C)C)NC(=O)[C@H](CC(C)C)NC(=O)OCc1ccccc1
Summary of the method: as §1

[18] = compound: CC(C)N(C[C@H]1O[C@@H](n2cnc3c(N)ncnc32)[C@H](O)[C@@H]1O)[C@H]1C[C@@H](CCc2nc3cc(C(C)(C)C)ccc3[nH]2)C1 [pinometostat]
Summary of the method: as §1

[19] = compound: CC1=C(C2=C(C=C1)C(=O)C3=CC=CC=C3N2CCCN)C
Summary of the method: as §1

[20] = compound: CC1=C(C(CC(=O)N1)C2=CC=C(C=C2)C(F)(F)F)C(=O)NC3=C(C=C4C(=C3)C=NN4)F
Summary of the method: as §1

Measured: log2 fold change

POLR1D (UniProt P0DPB5)
inactive: [1] -0.084 | [2] -0.015 | [3] -0.082 | [4] 0.064 | [5] -0.002 | [6] 0.14 | [7] -0.085 | [8] -0.078 | [9] 0.029 | [10] -0.037 | [11] -0.084 | [12] 0.237 | [13] -0.137 | [14] 0.039 | [15] 0.19 | [16] 0.041 | [17] 0.13 | [18] 0.055 | [19] -0.013

POMGNT2 (UniProt Q8NAT1)
inactive: [1] -0.006 | [2] 0.096 | [4] -0.112 | [5] -0.078 | [6] -0.067 | [8] 0.03 | [11] 0.043 | [12] -0.385 | [13] -0.208 | [16] 0.169 | [18] 0.025

PLP2 (UniProt Q04941)
inactive: [1] 0.206 | [2] -0.101 | [3] 0.103 | [4] -0.31 | [5] -0.255 | [6] -0.234 | [8] -0.057 | [11] 0.073 | [12] -0.25 | [13] -0.171 | [15] 0.078 | [16] 0.174 | [18] -0.233 | [20] -0.12

POLR2K (UniProt P53803)
active: [16] 0.429
inactive: [1] -0.081 | [2] 0.021 | [3] -0.037 | [4] 0.127 | [5] -0.017 | [6] 0.097 | [7] -0.1 | [8] -0.105 | [9] 0.005 | [10] 0.022 | [11] -0.041 | [12] 0.003 | [13] 0.059 | [14] -0.093 | [15] 0.028 | [17] 0.093 | [18] -0.092 | [19] 0.027

PNPLA8 (UniProt Q9NP80)
inactive: [1] 0.101 | [2] 0.031 | [3] 0.014 | [4] -0.029 | [5] 0.008 | [6] 0 | [7] 0.089 | [8] 0.022 | [9] 0.018 | [10] 0.037 | [11] -0.022 | [12] -0.049 | [13] 0.151 | [14] -0.005 | [15] -0.071 | [16] -0.06 | [17] 0.003 | [18] 0.064 | [19] 0.043

POLR3H (UniProt Q9Y535)
inactive: [1] 0.029 | [2] 0.157 | [3] 0.209 | [4] 0.06 | [5] 0.043 | [6] 0.054 | [7] -0.078 | [8] -0.04 | [11] -0.002 | [12] -0.066 | [13] -0.081 | [14] 0.142 | [15] 0.131 | [16] 0.051 | [17] -0.061 | [18] 0.024 | [20] -0.058

POMT1 (UniProt Q9Y6A1)
inactive: [1] -0.05 | [2] -0.093 | [3] -0.046 | [4] -0.06 | [5] 0.083 | [8] 0.009 | [9] 0.073 | [10] 0.067 | [11] 0.261 | [13] -0.048 | [15] -0.123 | [16] -0.192 | [18] 0.097 | [19] -0.045

Random excerpt: 2 records from the list.
POMGNT2 (UniProt Q8NAT1)
inactive: [1] -0.006 | [2] 0.096 | [4] -0.112 | [5] -0.078 | [6] -0.067 | [8] 0.03 | [11] 0.043 | [12] -0.385 | [13] -0.208 | [16] 0.169 | [18] 0.025

POLR3H (UniProt Q9Y535)
inactive: [1] 0.029 | [2] 0.157 | [3] 0.209 | [4] 0.06 | [5] 0.043 | [6] 0.054 | [7] -0.078 | [8] -0.04 | [11] -0.002 | [12] -0.066 | [13] -0.081 | [14] 0.142 | [15] 0.131 | [16] 0.051 | [17] -0.061 | [18] 0.024 | [20] -0.058

(next part)

PPIC (UniProt P45877)
inactive: [1] -0.196 | [2] 0.151 | [3] -0.015 | [4] 0.105 | [5] 0.267 | [6] 0.027 | [8] -0.003 | [11] 0.154 | [12] -0.023 | [13] -0.122 | [15] -0.021 | [16] 0.023 | [18] -0.021 | [20] 0.053

POT1 (UniProt Q9NUX5)
inactive: [1] 0.107 | [3] 0.047 | [4] -0.215 | [6] 0.144 | [7] 0.11 | [9] -0.095 | [10] 0.032 | [12] 0.127 | [14] 0.069 | [15] 0.049 | [16] 0.066 | [17] -0.027 | [20] -0.07 | [19] 0.082

PMVK (UniProt Q15126)
inactive: [1] 0.001 | [2] -0.518 | [3] 0.006 | [4] 0.042 | [5] 0.052 | [6] -0.045 | [8] -0.115 | [9] -0.006 | [10] 0.15 | [12] -0.039 | [13] -0.069 | [15] -0.072 | [16] -0.195 | [19] 0.061

POLR2L (UniProt P62875)
inactive: [1] -0.049 | [2] -0.012 | [3] 0.201 | [4] -0.084 | [5] 0.046 | [7] -0.158 | [8] 0.095 | [9] -0.099 | [10] -0.111 | [13] 0.009 | [14] 0.012 | [15] -0.003 | [16] 0.051 | [17] 0.138 | [20] -0.007 | [19] 0.27

POGZ (UniProt Q7Z3K3)
active: [19] -0.826
inactive: [1] 0.006 | [2] 0.085 | [3] 0.044 | [4] 0.033 | [5] -0.172 | [7] 0.023 | [8] 0.082 | [9] 0.026 | [10] 0.115 | [11] -0.133 | [13] -0.183 | [14] 0.083 | [15] -0.035 | [16] 0.066 | [17] 0.038 | [18] -0.05

POM121C (UniProt A8CG34)
inactive: [1] 0.062 | [2] -0.179 | [4] -0.015 | [5] 0.152 | [6] -0.08 | [7] -0.006 | [8] -0.277 | [11] -0.072 | [12] 0.123 | [13] -0.263 | [14] 0.042 | [16] -0.198 | [17] 0.223 | [18] 0.075 | [20] -0.353

PNN (UniProt Q9H307)
inactive: [1] 0.007 | [2] -0.001 | [3] 0.032 | [4] 0.024 | [5] 0.025 | [6] 0.085 | [7] -0.107 | [8] -0.11 | [11] 0.051 | [12] -0.047 | [13] -0.134 | [14] 0.032 | [15] 0.004 | [16] -0.146 | [17] 0.145 | [18] 0.124

POLR2I (UniProt P36954)
active: [13] 0.425
inactive: [1] -0.058 | [2] -0.107 | [3] 0.108 | [4] 0.068 | [5] -0.073 | [6] -0.117 | [7] 0.079 | [8] -0.043 | [9] -0.092 | [10] 0 | [11] 0.045 | [12] 0.136 | [14] -0.079 | [15] 0.035 | [16] 0.389 | [17] 0.03 | [18] -0.024 | [19] 0.324

PLVAP (UniProt Q9BX97)
inactive: [1] -0.096 | [2] -0.1 | [3] -0.186 | [4] 0.103 | [5] 0.106 | [6] 0.007 | [7] -0.015 | [8] -0.101 | [9] -0.118 | [10] 0.071 | [12] 0.224 | [13] 0.034 | [14] -0.042 | [15] 0 | [16] 0.135 | [17] -0.069 | [20] -0.077 | [19] -0.046

PLGRKT (UniProt Q9HBL7)
inactive: [1] 0.028 | [2] -0.048 | [3] 0.069 | [4] 0.036 | [5] 0.027 | [6] 0.082 | [8] -0.213 | [9] 0.108 | [10] 0.116 | [12] 0.049 | [13] -0.088 | [15] 0.113 | [16] -0.012 | [20] 0.014 | [19] 0.079

PNMT (UniProt P11086)
inactive: [1] 0.236 | [2] 0.043 | [4] 0.042 | [5] 0.079 | [8] 0.081 | [9] 0.015 | [10] -0.007 | [13] -0.091 | [16] -0.091 | [19] 0.125

PLSCR3 (UniProt Q9NRY6)
inactive: [1] 0.057 | [2] 0.163 | [4] 0.003 | [5] -0.036 | [8] -0.238 | [13] -0.041 | [16] 0.11 | [20] -0.092

POLR1B isoform 3 (UniProt Q9H9Y6)
inactive: [1] -0.113 | [3] -0.031 | [4] 0.174 | [7] 0.066 | [9] 0.022 | [10] -0.089 | [11] -0.01 | [14] 0.038 | [15] -0.024 | [16] -0.125 | [17] 0.099 | [18] 0.1 | [20] 0.045 | [19] -0.115

POLE4 (UniProt Q9NR33)
inactive: [1] 0.041 | [2] 0.024 | [3] 0.11 | [4] -0.12 | [5] -0.002 | [6] 0.085 | [8] 0.031 | [9] 0 | [10] 0.015 | [11] 0.021 | [12] 0.078 | [13] 0.034 | [15] -0.119 | [16] 0.092 | [18] -0.016 | [20] 0.039 | [19] 0.149

POLR2M (UniProt Q6EEV4)
inactive: [1] -0.044 | [2] 0.096 | [3] 0.242 | [4] 0.223 | [5] -0.006 | [6] -0.001 | [8] -0.048 | [9] -0.041 | [10] 0.024 | [11] -0.014 | [12] -0.075 | [13] -0.027 | [15] -0.091 | [16] 0.128 | [18] 0.005 | [19] 0.209
